Data source: PubChem BioAssay AID504744 (Drosophila RNAi Screening Center, 2011)

Purpose: 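Find genes whose loss alters insulin-driven dAkt phosphorylation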 (primary screen)
Cells: Drosophila Kc167 cells
Reagent: long dsRNA against Drosophila genes, 250 ng dsRNA per well of a 384-well plate
Time to read-out: 3 days of knock-down, then overnight serum-free starvation before stimulation
Conditions: bovine insulin at 387 nM for 10 minutes after 12 h without serum
Measured: 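In-cell antibody fluorescence for phospho-dAkt in each well over DNA-dye signal, with log2 residuals expressed as z-scores adjusted for cell count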
Rule for the call: 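Under insulin, a gene counts as a hit if the average z-score of two replicates lies above 2.5 or below -2.5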
In all, the deposit lists about 23,000 reagents; this is a random part of those with a known target gene and a result. Of all reagents, 98 (0.43%) got an active call. 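Only hit calls are given; the phospho-dAkt signals, z-scores and hit direction were not deposited.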 Reagents against one gene are numbered here. A plus sign joins genes that one reagent is predicted to hit.

| gene | reagent | outcome |
| --- | --- | --- |
| CG10140 (GeneID 39511) | 1 | inactive |
| CG15019 (GeneID 38542) | 1 | inactive |
| CG11843 (GeneID 43432) | 1 | inactive |
| pins (GeneID 53569) | 1 | inactive |
| CG12780 (GeneID 35834) | 1 | inactive |
| Nep1 (GeneID 31547) | 1 | inactive |
| Nep1 (GeneID 31547) | 2 | inactive |
| Pp2A-29B (GeneID 2768940) | 1 | inactive |
| sll (GeneID 42115) | 1 | inactive |
| dy (GeneID 32130) | 1 | inactive |
| mav (GeneID 43804) | 1 | inactive |
| CG15201 (GeneID 32053) | 1 | inactive |
| CG10513 (GeneID 43051) | 1 | inactive |
| CG30338 (GeneID 246548) | 1 | inactive |
| Nmdar2 (GeneID 31107) | 1 | inactive |
| Nmdar2 (GeneID 31107) | 2 | inactive |
| Nmdar2 (GeneID 31107) | 3 | inactive |
| CG31675 (GeneID 318879) | 1 | inactive |
| Atg7 (GeneID 37141) | 1 | inactive |
| Atg7 (GeneID 37141) | 2 | inactive |
| lawc (retired record) (GeneID 45395) | 1 | inactive |
| CG4950 (GeneID 39783) | 1 | inactive |
| CG5004 (GeneID 32698) | 1 | inactive |
| CG5004 (GeneID 32698) | 2 | inactive |
| CG5004 (GeneID 32698) | 3 | inactive |
| Prat2 (GeneID 38753) | 1 | inactive |
| Edg84A (GeneID 40818) | 1 | inactive |
| fra (GeneID 36377) | 1 | inactive |
| CG42676 (GeneID 2768999) | 1 | inactive |
| CG42676 (GeneID 2768999) | 2 | inactive |
| M1BP (GeneID 41042) | 1 | inactive |
| CG14423 (GeneID 31287) | 1 | inactive |
| CG14820 (GeneID 38754) | 1 | inactive |
| Mtch (GeneID 38026) | 1 | inactive |
| eIF3c (GeneID 37005) | 1 | inactive |
| rngo (GeneID 32616) | 1 | inactive |
| apolpp (GeneID 43827) | 1 | inactive |
| CG42360 (GeneID 37937) | 1 | active |
| lncRNA:CR32690 (GeneID 10178944) | 1 | inactive |
| lqf (GeneID 38846) | 1 | inactive |
| CG14105 (GeneID 39507) | 1 | inactive |
| CG13843 (GeneID 42668) | 1 | inactive |
| hpRNA:CR32207 (GeneID 10178801) | 1 | inactive |
| Met (GeneID 32114) | 1 | inactive |
| bor (GeneID 53565) | 1 | inactive |
| CG6928 (GeneID 39367) | 1 | inactive |
| Spt-I (GeneID 36448) | 1 | inactive |
| Acp76A (GeneID 40078) | 1 | inactive |
| l(2)05714 (GeneID 46066) | 1 | inactive |
| CG14321 (GeneID 42134) | 1 | inactive |
| CG11696 (GeneID 32104) | 1 | inactive |
| CG8117 (GeneID 32499) | 1 | inactive |
| Cyp310a1 (GeneID 35115) | 1 | inactive |
| CG12708 (GeneID 32502) | 1 | inactive |
| polybromo (GeneID 42954) | 1 | inactive |
| Nt5b (GeneID 32822) | 1 | inactive |
| Nt5b (GeneID 32822) | 2 | inactive |
| Nt5b (GeneID 32822) | 3 | inactive |
| Nt5b (GeneID 32822) | 4 | inactive |
| rdog (GeneID 43450) | 1 | inactive |
| Trx2 (GeneID 34281) | 1 | inactive |
| snky (GeneID 39492) | 1 | inactive |
| PIG-K (GeneID 31163) | 1 | inactive |
| Prp31 (GeneID 39655) | 1 | inactive |
| CG4594 (GeneID 34316) | 1 | inactive |
| fbp (GeneID 35265) | 1 | inactive |
| CkIalpha (GeneID 32221) | 1 | inactive |
| CkIalpha (GeneID 32221) | 2 | inactive |
| p120ctn (GeneID 3355143) | 1 | inactive |
| MsR2 + CG13802 (retired record) | 1 | inactive |
| MsR2 + CG13802 (retired record) | 2 | inactive |
| MsR2 + CG13802 (retired record) | 3 | inactive |
| mahe (GeneID 31707) | 1 | inactive |
| CG12182 (GeneID 38324) | 1 | inactive |
| CG7294 (GeneID 34470) | 1 | inactive |
| SP (GeneID 39494) | 1 | inactive |
| CG15198 (GeneID 32065) | 1 | inactive |
| CG32436 (GeneID 40362) | 1 | inactive |
| CG32436 (GeneID 40362) | 2 | inactive |
| CG10470 (GeneID 35174) | 1 | inactive |
| CG18814 (GeneID 59175) | 1 | inactive |
| SMSr (GeneID 38823) | 1 | inactive |
| SMSr (GeneID 38823) | 2 | inactive |
| park + Targ3 | 1 | inactive |
| Trpml + CG42638 | 1 | inactive |
| esg (GeneID 34903) | 1 | inactive |
| Ir25a (GeneID 33683) | 1 | inactive |
| Ppox (GeneID 42939) | 1 | inactive |
| CG3650 (GeneID 37974) | 1 | inactive |
| Nepl8 (GeneID 34983) | 1 | inactive |
| CG15386 + CG42371 | 1 | inactive |
| CG32280 (GeneID 317952) | 1 | inactive |
| NC2beta (GeneID 34875) | 1 | inactive |
| Mst27D (GeneID 319019) | 1 | inactive |
| Pex11ab (GeneID 36758) | 1 | inactive |
| CG32687 (GeneID 31980) | 1 | inactive |
| CG32687 (GeneID 31980) | 2 | inactive |
| Pu (GeneID 37415) | 1 | inactive |
| fd102C (GeneID 43843) | 1 | inactive |
| Gart (GeneID 33986) | 1 | inactive |
| CG42380 + CG42379 + PIG-M + 1 more | 1 | inactive |
| CG42380 + CG42379 + PIG-M + 1 more | 2 | inactive |
| slo (GeneID 42940) | 1 | inactive |
| AnxB10 (GeneID 33019) | 1 | inactive |
| Rpn5 (GeneID 40717) | 1 | inactive |
| bab1 (GeneID 38116) | 1 | inactive |
| bab1 (GeneID 38116) | 2 | inactive |
| bab1 (GeneID 38116) | 3 | inactive |
| CG14401 (GeneID 35358) | 1 | inactive |
| CG14401 (GeneID 35358) | 2 | inactive |
| gb (GeneID 43265) | 1 | inactive |
| gskt (GeneID 318552) | 1 | inactive |
| CG40005 (retired record) + cta | 1 | inactive |
| CG31406 (GeneID 318715) | 1 | inactive |
| CG18249 (GeneID 40964) | 1 | inactive |
| Prx6c + CG12896 + Prx6b | 1 | inactive |
| FoxP (GeneID 41182) | 1 | inactive |
| FoxP (GeneID 41182) | 2 | inactive |
| CG9592 (GeneID 39585) | 1 | inactive |
| CG7140 (GeneID 40445) | 1 | inactive |
| Pdhb (GeneID 43437) | 1 | inactive |
| tral (GeneID 39430) | 1 | inactive |
| Arl4 (GeneID 43771) | 1 | inactive |
| CG14500 (GeneID 37087) | 1 | inactive |
| CG33292 (retired record) (GeneID 2768953) | 1 | inactive |
| Ror (GeneID 34367) | 1 | inactive |
| Rab9 (GeneID 35221) | 1 | inactive |
| dbo (GeneID 53556) | 1 | inactive |
| CG3124 (GeneID 37688) | 1 | inactive |
| Sema1a (GeneID 34192) | 1 | inactive |
| CG13931 (GeneID 38212) | 1 | inactive |
| CG15753 (retired record) (GeneID 32306) | 1 | inactive |
| TP53INP (GeneID 38543) | 1 | inactive |
| TP53INP (GeneID 38543) | 2 | inactive |
| CG13423 (GeneID 37315) | 1 | inactive |
| SkpF + CG5357 (retired record) | 1 | inactive |
| Sptr (GeneID 31781) | 1 | inactive |
| CG31082 (retired record) (GeneID 318587) | 1 | inactive |
| OtopLb (GeneID 33539) | 1 | active |
| CR40354 (GeneID 10178779) | 1 | inactive |
| Smu1 (GeneID 42272) | 1 | inactive |
| CG7201 (GeneID 38929) | 1 | inactive |
| Rchy1 (GeneID 33901) | 1 | inactive |
| CG44837 (GeneID 5740513) | 1 | inactive |
| CG44837 (GeneID 5740513) | 2 | inactive |
| CG11581 (GeneID 32362) | 1 | inactive |
| Idgf1 (GeneID 34978) | 1 | inactive |
| DCTN1-p150 (GeneID 39536) | 1 | inactive |
| CG17059 (GeneID 50227) | 1 | inactive |
| Stt3A (GeneID 33082) | 1 | inactive |
| MTPAP (GeneID 31081) | 1 | inactive |
| CG31917 + Tfb5 | 1 | inactive |
| CG31917 + Tfb5 | 2 | inactive |
| CG33557 (GeneID 3346145) | 1 | inactive |
| CG10086 (GeneID 40920) | 1 | inactive |
| CG13339 (GeneID 36528) | 1 | inactive |
| CG14270 (GeneID 31319) | 1 | inactive |

18 of these entries, set out differently.
sll (GeneID 42115) → outcome = inactive
dy (GeneID 32130) → outcome = inactive
mav (GeneID 43804) → outcome = inactive
CG15201 (GeneID 32053) → outcome = inactive
CG10513 (GeneID 43051) → outcome = inactive
CG30338 (GeneID 246548) → outcome = inactive
Nmdar2 (GeneID 31107) #1 → outcome = inactive
Nmdar2 (GeneID 31107) #2 → outcome = inactive
Nmdar2 (GeneID 31107) #3 → outcome = inactive
CG31675 (GeneID 318879) → outcome = inactive
Atg7 (GeneID 37141) #1 → outcome = inactive
Atg7 (GeneID 37141) #2 → outcome = inactive
lawc (retired record) (GeneID 45395) → outcome = inactive
CG4950 (GeneID 39783) → outcome = inactive
CG5004 (GeneID 32698) #1 → outcome = inactive
CG5004 (GeneID 32698) #2 → outcome = inactive
CG5004 (GeneID 32698) #3 → outcome = inactive
Prat2 (GeneID 38753) → outcome = inactive
